The record followed here is article PMC10349144.

Chains of the proteins cited; added tags and fusions are not shown. Lines headed by an entry give the natural chain unless they say otherwise; changes in a name come on top. A line that says so, or that is headed by a name, gives the form on record, which may keep a tag or linker.
Myc-tagged RORγt (retinoic-acid related orphan receptor-γt) (P51450, form named): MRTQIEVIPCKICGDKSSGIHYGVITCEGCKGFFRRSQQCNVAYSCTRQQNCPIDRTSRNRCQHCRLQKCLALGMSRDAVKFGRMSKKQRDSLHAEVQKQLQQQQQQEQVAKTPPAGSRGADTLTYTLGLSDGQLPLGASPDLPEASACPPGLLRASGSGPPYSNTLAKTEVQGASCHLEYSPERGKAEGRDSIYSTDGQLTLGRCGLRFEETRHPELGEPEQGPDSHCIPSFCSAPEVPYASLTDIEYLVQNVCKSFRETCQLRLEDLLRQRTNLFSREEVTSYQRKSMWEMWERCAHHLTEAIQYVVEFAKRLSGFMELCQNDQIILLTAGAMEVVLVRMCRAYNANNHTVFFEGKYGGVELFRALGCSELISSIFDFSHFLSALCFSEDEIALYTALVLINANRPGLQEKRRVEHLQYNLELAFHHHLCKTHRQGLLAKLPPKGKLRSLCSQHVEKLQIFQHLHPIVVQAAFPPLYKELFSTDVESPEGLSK

No constants are given. Whether binding was seen depends on the method and setting. Binding seen in cells or lysates may run through a third protein. Some results given as binding are weak or reduced against the parent protein; the word gives no strength. For part of these data: Where a sequence is shown, tags or fusion partners need not be part of it.

The target in assay [1] is Myc-tagged RORγt (retinoic-acid related orphan receptor-γt) (UniProt P51450). In words: co-IP; 293T cells co-transfected with tagged expression plasmids (Lipofectamine 2000), 48 h, RIPA lysis; anti-HA, anti-Flag or anti-Myc antibody, Dynabeads Protein G; western blot. For orientation: Immunoblotting shows a protein as a band on a membrane.
Assay [2] concerns the target T1, HA-tagged Foxp3 (forkhead-box P3) (UniProt Q99JB6).
T1 sequence: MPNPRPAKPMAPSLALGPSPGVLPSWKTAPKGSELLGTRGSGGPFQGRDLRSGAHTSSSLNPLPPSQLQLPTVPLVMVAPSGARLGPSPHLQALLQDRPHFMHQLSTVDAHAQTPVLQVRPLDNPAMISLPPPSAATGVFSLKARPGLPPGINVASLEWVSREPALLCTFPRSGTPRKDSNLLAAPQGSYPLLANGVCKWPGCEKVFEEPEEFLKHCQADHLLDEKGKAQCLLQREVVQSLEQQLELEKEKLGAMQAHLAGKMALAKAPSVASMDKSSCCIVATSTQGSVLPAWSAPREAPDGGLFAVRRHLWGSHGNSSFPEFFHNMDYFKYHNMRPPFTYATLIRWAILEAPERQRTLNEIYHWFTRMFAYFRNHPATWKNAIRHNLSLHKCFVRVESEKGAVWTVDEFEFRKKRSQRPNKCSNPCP
Described as above.

Assay [3] deals with T2, Foxp3 (of the 'endogenous Co-IP') (UniProt Q99JB6).
T2 sequence: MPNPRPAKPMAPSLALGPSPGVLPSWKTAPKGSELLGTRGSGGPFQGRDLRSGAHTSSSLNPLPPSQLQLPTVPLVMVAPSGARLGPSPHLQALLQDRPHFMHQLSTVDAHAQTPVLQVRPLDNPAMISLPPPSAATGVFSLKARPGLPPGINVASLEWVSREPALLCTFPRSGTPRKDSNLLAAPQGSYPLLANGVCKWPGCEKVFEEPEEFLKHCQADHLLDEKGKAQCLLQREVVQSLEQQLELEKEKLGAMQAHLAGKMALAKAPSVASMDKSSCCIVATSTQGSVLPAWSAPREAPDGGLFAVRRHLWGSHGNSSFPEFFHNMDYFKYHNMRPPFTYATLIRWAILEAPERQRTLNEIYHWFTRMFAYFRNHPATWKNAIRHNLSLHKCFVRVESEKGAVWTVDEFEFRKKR
The experiment in a line: co-IP; 'endogenous Co-IP' using the plasmids overexpressing IKKα and Foxp3 in 293T cells; plasmids co-transfected or transfected individually depending on endogenous or exogenous Co-IP; RIPA lysis, Dynabeads Protein G.

B1: HA-tagged IKKα (IκB kinase-alpha) (enzyme, UniProt Q60680 1-745)
chain: MERPPGLRPGAGGPWEMRERLGTGGFGNVSLYQHRELDLKIAIKSCRLELSSKNRERWCHEIQIMKKLDHANVVKACDVPEELNFLINDVPLLAMEYCSGGDLRKLLNKPENCCGLKESQILSLLSDIGSGIRYLHENKIIHRDLKPENIVLQDVGGKTIHKIIDLGYAKDVDQGSLCTSFVGTLQYLAPELFENKPYTATVDYWSFGTMVFECIAGYRPFLHHLQPFTWHEKIKKKDPKCIFACEEMTGEVRFSSHLPQPNSLCSLIVEPMESWLQLMLNWDPQQRGGPIDLTLKQPRCFALMDHILNLKIVHILNMTSAKIISFLLPCDESLHSLQSRIERETGINTGSQELLSETGISLDPRKPASQCVLDGVRGCDSYMVYLFDKSKTVYEGPFASRSLSDCVNYIVQDSKIQLPIIQLRKVWAEAVHYVSGLKEDYSRLFQGQRAAMLSLLRYNANLTKMKNTLISASQQLKAKLEFFRKSIQLDLERYSEQMTYGISSEKMLKAWKEMEEKAIHYSEVGVIGYLEDQIMSLHTEIMELQKSPYGRRQGDLMESLEQRAIDLYKQLKHRPPDHLYSDSTEMVKIIVHTVQSQDRVLKELFGHLSKLLGCKQKIIDLLPKVEVALSNIKEADNTVMFMQGKRQKEIWHLLKIACTQSSARSLVGSSLEGTVTPPVSAWLPPTLADREHPLTCVVTPQDGETLAQMIEENLNCLGHLSTIIREANEDQSSSLMSLDWSWLAE
Turning to B1, the binding entry in assay [1] was “binds”.

B2: Flag-tagged IKKα (IκB kinase-alpha) (enzyme, UniProt Q60680 1-745)
chain: MERPPGLRPGAGGPWEMRERLGTGGFGNVSLYQHRELDLKIAIKSCRLELSSKNRERWCHEIQIMKKLDHANVVKACDVPEELNFLINDVPLLAMEYCSGGDLRKLLNKPENCCGLKESQILSLLSDIGSGIRYLHENKIIHRDLKPENIVLQDVGGKTIHKIIDLGYAKDVDQGSLCTSFVGTLQYLAPELFENKPYTATVDYWSFGTMVFECIAGYRPFLHHLQPFTWHEKIKKKDPKCIFACEEMTGEVRFSSHLPQPNSLCSLIVEPMESWLQLMLNWDPQQRGGPIDLTLKQPRCFALMDHILNLKIVHILNMTSAKIISFLLPCDESLHSLQSRIERETGINTGSQELLSETGISLDPRKPASQCVLDGVRGCDSYMVYLFDKSKTVYEGPFASRSLSDCVNYIVQDSKIQLPIIQLRKVWAEAVHYVSGLKEDYSRLFQGQRAAMLSLLRYNANLTKMKNTLISASQQLKAKLEFFRKSIQLDLERYSEQMTYGISSEKMLKAWKEMEEKAIHYSEVGVIGYLEDQIMSLHTEIMELQKSPYGRRQGDLMESLEQRAIDLYKQLKHRPPDHLYSDSTEMVKIIVHTVQSQDRVLKELFGHLSKLLGCKQKIIDLLPKVEVALSNIKEADNTVMFMQGKRQKEIWHLLKIACTQSSARSLVGSSLEGTVTPPVSAWLPPTLADREHPLTCVVTPQDGETLAQMIEENLNCLGHLSTIIREANEDQSSSLMSLDWSWLAE
With B2, the binding result in assay [2] is reported as “binds”.

B3: IKKα (of the 'endogenous Co-IP') (enzyme, UniProt Q60680 1-745)
chain: MERPPGLRPGAGGPWEMRERLGTGGFGNVSLYQHRELDLKIAIKSCRLELSSKNRERWCHEIQIMKKLDHANVVKACDVPEELNFLINDVPLLAMEYCSGGDLRKLLNKPENCCGLKESQILSLLSDIGSGIRYLHENKIIHRDLKPENIVLQDVGGKTIHKIIDLGYAKDVDQGSLCTSFVGTLQYLAPELFENKPYTATVDYWSFGTMVFECIAGYRPFLHHLQPFTWHEKIKKKDPKCIFACEEMTGEVRFSSHLPQPNSLCSLIVEPMESWLQLMLNWDPQQRGGPIDLTLKQPRCFALMDHILNLKIVHILNMTSAKIISFLLPCDESLHSLQSRIERETGINTGSQELLSETGISLDPRKPASQCVLDGVRGCDSYMVYLFDKSKTVYEGPFASRSLSDCVNYIVQDSKIQLPIIQLRKVWAEAVHYVSGLKEDYSRLFQGQRAAMLSLLRYNANLTKMKNTLISASQQLKAKLEFFRKSIQLDLERYSEQMTYGISSEKMLKAWKEMEEKAIHYSEVGVIGYLEDQIMSLHTEIMELQKSPYGRRQGDLMESLEQRAIDLYKQLKHRPPDHLYSDSTEMVKIIVHTVQSQDRVLKELFGHLSKLLGCKQKIIDLLPKVEVALSNIKEADNTVMFMQGKRQKEIWHLLKIACTQSSARSLVGSSLEGTVTPPVSAWLPPTLADREHPLTCVVTPQDGETLAQMIEENLNCLGHLSTIIREANEDQSSSLMSLDWSWLAE
On to B3, for which the binding entry in assay [3] was “binds”.
